# Experimental data published in PubChem BioAssay AID540256 (National Center for Advancing Translational Sciences (NCATS), 2011).
# In all, about 300,000 compounds went through this assay and about 3,700 (1.2%) were called active. The shares of active, inactive and inconclusive entries below differ from those in the screen. The call rests on the fitted dose curve; tested in HEK293 cells. Where the call is inconclusive, the potency comes from a doubtful curve fit.
# Experiment: qHTS for Inhibitors of binding or entry into cells for Lassa Virus; further: nearly all actives have a fitted effect of over 50% in size
# Details: Lassa virus pseudotype entry inhibition, cell reporter; activity change, negative = inhibition: at 37.9 µM (top of the series) unless noted
# On the % scale 0 is the no-effect control and ±100 the full control effect; potency means the concentration at half of the fitted maximal effect.
Compound,Potency,"activity change, negative = inhibition"
CC(=O)N(/N=C1\Sc2ccccc2C1=O)c1ccc(C)cc1C,active: 10 µM,–
C/C(=N\NC(=O)COc1ccccc1-c1ccccc1)c1cccnc1,"inconclusive: 11.2 µM [inhibitor, partial curve, poor fit]",–
COc1ccccc1-c1c(C)c(C)nc(N)c1C#N,–,inactive: 16.9%
CCC1(c2ccc(F)cc2)NC(=O)N(CC(=O)NC2CC2)C1=O (stereo unspecified),"inconclusive: 15.8 µM [activator, single point]",–
COc1ccc(COC(=O)C2=C(C)NC(=O)CC2c2cccc(Cl)c2Cl)cc1 (stereo unspecified),–,inactive: 11.6% [at 46.1 µM]
S=C(Nc1ccccc1Cl)N(CCCN1CCOCC1)Cc1ccccn1,–,inactive: -1.34%
COCc1cc(CN2CCN(C)CC2)c(O)c2ncccc12,"inconclusive: 32.6 µM [inhibitor, partial curve, poor fit]",–
CCOc1ccc(N2CC(=O)SC2=S)cc1,–,inactive: -30%
Cc1ccccc1S(=O)(=O)Nc1nc2ccccc2nc1Cl,–,inactive: 19.2% [at 46.1 µM]
O=C(NCCc1ccccc1)C1CCN(Cc2cc3ccccc3n2Cc2ccccc2)CC1,"inconclusive: 35.5 µM [inhibitor, single point]",–
O=[N+]([O-])c1ccccc1Nc1c2ccccc2nc2ccccc12,"inconclusive: 12.6 µM [inhibitor, single point]",–
COc1ccc(-c2cn3cccnc3n2)cc1NC(=O)Nc1cc(C)ccc1C,"inconclusive: 35.5 µM [inhibitor, single point]",–
CSc1nsc(SCc2ccc(F)cc2)n1,–,inactive: -1.35%
Cc1ccc2c(c1)N(C)/C(=C/c1cccc[n+]1C)S2,"inconclusive: 5.62 µM [inhibitor, partial curve, poor fit]",–
Cc1ccc(-n2nc(CC#N)c(C#N)c2N)cc1,–,inactive: 13.3%
CCOc1ccccc1CN1CCc2nc(N3CCN(C)CC3)ncc2C1,–,inactive: -7.05% [at 46.1 µM]
Cc1ccc(C)c(N2CCN(S(=O)(=O)c3ccc(-c4cnc(C5CC5)o4)cc3)CC2)c1,"inconclusive: 35.5 µM [inhibitor, single point]",–
CCOC(=O)NCc1ccc(S(=O)(=O)Nc2ccc(C)cc2)cc1,"inconclusive: 18.3 µM [inhibitor, partial curve, poor fit]",–
C#CCN1C(=O)S/C(=C/C=C/c2ccc(N(C)C)cc2)C1=O,"inconclusive: 1.03 µM [activator, full curve, poor fit]",–
Cc1ccccc1NC(=S)NC(=O)c1cncc(Br)c1,"inconclusive: 29.1 µM [inhibitor, single point]",–
N#C/C(=C(/O)c1ccc([N+](=O)[O-])cc1)c1nnc2n1CCCCC2,–,inactive: 13.3%
Cc1ccc(C2CN=NC23CCc2ccccc2C3=O)cc1 (stereo unspecified),–,inactive: 24.9%
COC(=O)c1ccc(OCC2c3cc(OC)c(OC)cc3CCN2C(C)=O)cc1 (stereo unspecified),"inconclusive: 5.62 µM [inhibitor, single point]",–
CC(=O)NCCOC(=O)Nc1cccnc1,–,inactive: -0.927%

Compound,Potency,"activity change, negative = inhibition"
CC(C)Oc1ccc(CCC(=O)NNC(=S)Nc2ccccc2)cc1,"inconclusive: 2.82 µM [inhibitor, full curve]",–
NS(=O)(=O)c1cccc(NC(=O)COC(=O)c2ccccc2SCC(=O)N2CCCC2)c1,"inconclusive: 0.708 µM [activator, partial curve, poor fit]",–
CCOC(=O)CSc1nc2cc(C)ccc2cc1C#N,"inconclusive: 1.16 µM [activator, full curve]",–
COc1ccccc1NC(=O)N1CCc2[nH]c3ccc(F)cc3c2C1,–,inactive: -17.7%
C=CCN(c1ccccc1)S(=O)(=O)c1cccc(C(=O)N2CCN(c3ncccn3)CC2)c1,"inconclusive: 28.2 µM [inhibitor, single point]",–
COc1ccc2nc(N3CCCC(C(=O)NCCCN4C(C)CCCC4C)C3)sc2c1 (stereo unspecified),"inconclusive: 2.24 µM [activator, partial curve]",–
C=CCn1c(O)c(/C=C2\C=NN=C2c2ccccc2)sc1=S,"inconclusive: 15.8 µM [inhibitor, single point]",–
CCCOc1ccccc1/C=C1\SC(N)=NC1=O,–,inactive: 3.75% [at 46.1 µM]
CCN(CC)C(=O)c1sc(NC(=O)c2ccc3c(c2)OCO3)c(C#N)c1C,"inconclusive: 23.1 µM [activator, single point]",–
Cc1ccc2nc(NNC(=O)c3ccc(S(=O)(=O)N4CCc5ccccc5C4)cc3)sc2c1,"inconclusive: 8.2 µM [inhibitor, partial curve, poor fit]",–
O=C1/C(=C/c2cccnc2)SC(=S)N1Cc1ccco1,"inconclusive: 35.5 µM [inhibitor, single point]",–
COc1ccccc1NC1=C(N2CCCCC2)C(=O)c2ccccc2C1=O,"inconclusive: 35.5 µM [inhibitor, single point]",–
COc1cccc(Oc2cncnc2-c2ccc(OC)cc2O)c1,"inconclusive: 11.2 µM [inhibitor, single point]",–
Nc1ccc(Oc2ccccc2-c2ccccc2)cc1,active: 5.62 µM,–
O=S(=O)(Nc1nc2ccccc2nc1N1CCc2ccccc2C1)c1ccc(Cl)cc1,"inconclusive: 22.4 µM [inhibitor, partial curve, poor fit]",–
C/C(=N\OC(=O)c1c(-c2c(F)cccc2Cl)noc1C)c1nccs1,–,inactive: -6.9% [at 46.1 µM]
COc1ccc(C)cc1N(C(=O)c1cccc(F)c1)c1nc2ccccc2s1,"inconclusive: 5.62 µM [inhibitor, single point]",–
CCCCN(C(=O)CSc1nc2ccccc2s1)c1c(N)n(CCCC)c(=O)[nH]c1=O,–,inactive: -2.98%
CCCCOc1ccc(OC(=O)c2cccnc2)cc1,–,inactive: -7.36%
Cc1nc(C)c(C(=O)N2CCCC(C(=O)c3cc(F)ccc3F)C2)s1 (stereo unspecified),"inconclusive: 5.62 µM [activator, single point]",–
Cc1ccccc1N=Cc1cc2c(cc1[N+](=O)[O-])OCO2,"inconclusive: 1.12 µM [inhibitor, full curve, poor fit]",–
Cc1cc(C(=O)COC(=O)C2=COCCO2)c(C)n1-c1cccc(F)c1,"inconclusive: 31.6 µM [inhibitor, single point]",–
O=C(/C=C/c1ccc2c(c1)OCO2)c1cccnc1,–,inactive: 16.4% [at 46.1 µM]
COc1ccc(-c2onc(C)c2C)cc1S(=O)(=O)Nc1cccc(C#N)c1,–,inactive: -21% [at 46.1 µM]

Compound,Potency,"activity change, negative = inhibition"
Cc1ccc(NC(=O)COC(=O)CCNS(=O)(=O)c2c(Cl)cccc2Cl)cc1,"inconclusive: 10 µM [activator, partial curve]",–
O=C(NCCc1ccc(Cl)cc1)c1ccc2c(c1)nc1n2CCOC1,"inconclusive: 7.08 µM [activator, full curve, poor fit]",–
Clc1ccc(-c2nnc(NCc3ccccc3)c3ccccc23)cc1,"inconclusive: 35.5 µM [inhibitor, single point]",–
Cc1ccc(NCC(=O)Nc2cccc(S(=O)(=O)N(C)C)c2)c(Cl)c1,"inconclusive: 23.1 µM [inhibitor, single point]",–
COC(=O)c1cccc(NC(=O)c2ccc3c(c2)C(=O)N(CC2CCCO2)C3=O)c1 (stereo unspecified),–,inactive: 0.694%
Cc1csc(NC(=O)c2ccc(N3CCCC3=O)cc2)n1,"inconclusive: 5.17 µM [inhibitor, full curve, poor fit]",–
CCOc1ccccc1N(C(=O)c1snc(C(N)=O)c1N)C(C(=O)NCCC(C)C)c1ccco1 (stereo unspecified),"inconclusive: 10 µM [inhibitor, partial curve]",–
COc1ccc(-c2nc3c(c4c2C[C@H](c2ccccc2)OC4)CN(S(=O)(=O)c2ccc(Cl)c4nonc24)CC3)c(C)c1,inconclusive: 0.0007 µM [inhibitor],–
Cc1ccccc1C(=O)OCc1cc(=O)n2nc(C3CCCCC3)sc2n1,"inconclusive: 35.5 µM [activator, single point]",–
Cc1ccc(CNC(=O)C(CC(C)C)OC(=O)c2ccco2)cc1 (stereo unspecified),"inconclusive: 22.4 µM [inhibitor, partial curve, poor fit]",–
CCCCN=C(N)/C(C(=O)OCC)=C(\O)c1ccc(OC)cc1,"inconclusive: 35.5 µM [activator, partial curve, poor fit]",–
COc1ccc(C(=O)N2CCNC(=O)C2CC(=O)Nc2ccc(C)c(C)c2)cc1 (stereo unspecified),"inconclusive: 11.2 µM [inhibitor, partial curve]",–
CC(C)(C)c1ccc(OCCCC(=O)Nc2cccc(S(=O)(=O)N3CCOCC3)c2)cc1,"inconclusive: 15.8 µM [inhibitor, single point]",–
O=C(NCCc1csc(-c2cccnc2)n1)c1ccccc1,–,inactive: 21.5% [at 46.1 µM]
O=S(=O)(c1ccc2nnn(OCc3ccccc3)c2c1)N1CCOCC1,–,inactive: 2.52%
CCOC(=O)c1cnc(N2CCN(c3cccc(C)c3C)CC2)c2ccccc12,"inconclusive: 1.12 µM [inhibitor, full curve, poor fit]",–
CCc1ccc(N(CC(=O)NC2CCCC2)C(=O)CCC(=O)Nc2cc(C)on2)cc1,–,inactive: -17.8%
CCC(=O)NCCc1cc2cc(C)c(C)cc2[nH]c1=O,"inconclusive: 1.26 µM [inhibitor, single point]",–
Oc1ccccc1N1CCN(c2ncccn2)CC1,"inconclusive: 3.66 µM [activator, full curve, poor fit]",–
COc1ccc(C(CNC(=O)c2cccc(S(=O)(=O)Nc3ccc(F)cc3)c2)N(C)C)cc1 (stereo unspecified),–,inactive: -15.7%
N=c1n(CCN2CCOCC2)c2ccccc2n1CC(=O)c1ccc(Cl)c(Cl)c1,"inconclusive: 32.6 µM [inhibitor, single point]",–
Cc1ccccc1NC(=O)C1CCCN(S(=O)(=O)c2ccc(-n3cnnn3)cc2)C1 (stereo unspecified),"inconclusive: 0.631 µM [inhibitor, full curve, poor fit]",–
COc1ccc(-c2nnn3c2nc(NCc2ccc(C)cc2)c2ccccc23)cc1,–,inactive: 10.2% [at 46.1 µM]

# A run of entries taken from the entries so far:
Compound,Potency,"activity change, negative = inhibition"
Cc1csc(NC(=O)c2ccc(N3CCCC3=O)cc2)n1,"inconclusive: 5.17 µM [inhibitor, full curve, poor fit]",–
CCOc1ccccc1N(C(=O)c1snc(C(N)=O)c1N)C(C(=O)NCCC(C)C)c1ccco1 (stereo unspecified),"inconclusive: 10 µM [inhibitor, partial curve]",–
COc1ccc(-c2nc3c(c4c2C[C@H](c2ccccc2)OC4)CN(S(=O)(=O)c2ccc(Cl)c4nonc24)CC3)c(C)c1,inconclusive: 0.0007 µM [inhibitor],–
